Experimental data taken from patent US7122360B1, “Polypeptides, polynucleotides and uses thereof” (University of Dundee, priority 1998, dated 2006).
Some results were stated once for a whole list of compounds, not compound by compound.

Tested on: MSK1
Assay: Activation of transfected Flag-MSK1 in 293 cells
Format: cell-based, human
Details: stimulation with the agonist
Protocol: FIG. 6. Effect of mutation of MSK1 on activation by TPA and UV in 293 cells. 293 cells were transiently transfected with DNA constructs expressing Flag epitope tagged wild type MSK1, N-terminal (NT) “kinase dead” MSK1 and C-terminal (CT) “kinase dead” MSK1. […] The cells were lysed and the MSK1 was immunoprecipitated from the lysates and assayed with Crosstide.
Transfection of MSK1 into 293 cells. 293 cells were cultured on 10 cm diameter dishes and transfected with the pCMV5 vector encoding the Flag epitope tagged MSK1 constructs using a modified calcium phosphate method (Alessi et al., 1996b). 24 h post-transfection, the cells were deprived of serum for 16 h, stimulated with TPA or exposed to UV radiation, the cells were then lysed in 1 ml of ice cold Buffer A, centrifuged at 13,000×g for 5 min, and the Flag tagged MSK1 protein immunoprecipitated from aliquots of lysate (containing 25 μg protein) using 2 μg of FLAG antibody coupled to 5 (1 of Protein G-Sepharose.
Immunoprecipitates were incubated, washed and assayed for MSK1 activity as described above.

B1: EGF: polypeptide growth factor used as cell stimulus (protein, UniProt P01133 23-1207, looked up)
Pro-epidermal growth factor: PQHWSCPEGTLAGNGNSTCVGPAPFLIFSHGNSIFRIDTEGTNYEQLVVDAGVSVIMDFHYNEKRIYWVDLERQLLQRVFLNGSRQERVCNIEKNVSGMAINWINEEVIWSNQQEGIITVTDMKGNNSHILLSALKYPANVAVDPVERFIFWSSEVAGSLYRADLDGVGVKALLETSEKITAVSLDVLDKRLFWIQYNREGSNSLICSCDYDGGSVHISKHPTQHNLFAMSLFGDRIFYSTWKMKTIWIANKHTGKDMVRINLHSSFVPLGELKVVHPLAQPKAEDDTWEPEQKLCKLRKGNCSSTVCGQDLQSHLCMCAEGYALSRDRKYCEDVNECAFWNHGCTLGCKNTPGSYYCTCPVGFVLLPDGKRCHQLVSCPRNVSECSHDCVLTSEGPLCFCPEGSVLERDGKTCSGCSSPDNGGCSQLCVPLSPVSWECDCFPGYDLQLDEKSCAASGPQPFLLFANSQDIRHMHFDGTDYGTLLSQQMGMVYALDHDPVENKIYFAHTALKWIERANMDGSQRERLIEEGVDVPEGLAVDWIGRRFYWTDRGKSLIGRSDLNGKRSKIITKENISQPRGIAVHPMAKRLFWTDTGINPRIESSSLQGLGRLVIASSDLIWPSGITIDFLTDKLYWCDAKQSVIEMANLDGSKRRRLTQNDVGHPFAVAVFEDYVWFSDWAMPSVMRVNKRTGKDRVRLQGSMLKPSSLVVVHPLAKPGADPCLYQNGGCEHICKKRLGTAWCSCREGFMKASDGKTCLALDGHQLLAGGEVDLKNQVTPLDILSKTRVSEDNITESQHMLVAEIMVSDQDDCAPVGCSMYARCISEGEDATCQCLKGFAGDGKLCSDIDECEMGVPVCPPASSKCINTEGGYVCRCSEGYQGDGIHCLDIDECQLGEHSCGENASCTNTEGGYTCMCAGRLSEPGLICPDSTPPPHLREDDHHYSVRNSDSECPLSHDGYCLHDGVCMYIEALDKYACNCVVGYIGERCQYRDLKWWELRHAGHGQQQKVIVVAVCVVVLVMLLLLSLWGAHYYRTQKLLSKNPKNPYEESSRDVRSRRPADTEDGMSSCPQPWFVVIKEHQDLKNGGQPVAGEDGQAADGSMQPTSWRQEPQLCGMGTEQGCWIPVSSDKGSCPQVMERSFHMPSYGTQTLEGGVEKPHSLLSANPLWQQRALDPPHQMELTQ
modifications: Pro-epidermal growth factor
notes: polypeptide growth factor used as cell stimulus
activation of transfected wild type MSK1: 50-100 fold
